Test results taken from PubChem BioAssay AID662 (National Center for Advancing Translational Sciences (NCATS), 2007).
This is one part of the list. The main result of the screen is listed elsewhere. These columns were measured beside it and carry no call. Most of these compounds were active or inconclusive in the main read-out, so they are no random draw. Potencies come from curve fits of mixed quality, noted in brackets.

Assay: Cell signaling CRE-BLA (Fsk stim)
Settings: CHO CRE-bla reporter (cAMP response element driving beta-lactamase), forskolin EC10, beta-lactamase ratio; measured here: 460 nm blue channel
Summary of the method: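 CRE-bla CHO cells stimulated with EC10 NKH 477 (water-soluble forskolin) and compound titrations, 3 h at 37C; beta-lactamase read with CCF4 after 2 h at room temperature. Activity from 460/530 nm emission ratio, AC50 values for positive or negative modulation.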

Row | SMILES | AC50
1 | COc1ccccc1N1CCN(CC(=O)c2ccc3ccn(C(C)=O)c3c2)CC1 | 2.51 µM [falling, full curve]
2 | O=C(c1ccc2c(c1)OCO2)N1CCNc2ccccc2C1 | 15.8 µM [rising, single point]
3 | FC(F)(F)c1cc(-c2ccco2)nc(-n2nc(C(F)(F)F)cc2C2CC2)n1 | 0.316 µM [rising, full curve]
4 | COc1cccc(-c2csc(N3CCN(S(=O)(=O)c4ccc(F)cc4)CC3)n2)c1 | 15.8 µM [falling, single point]
5 | COc1ccc2nc(SCC(=O)Nc3ccccc3C#N)[nH]c2c1 | 15.8 µM [rising, partial curve]
6 | O=C(CN(CCc1ccccc1)C(=O)CN1C(=O)COc2ccccc21)NCc1ccco1 | 0.316 µM [falling, partial curve]
7 | C=CCn1c(SCc2cccnc2)nnc1-c1ccncc1 | 20 µM [rising, single point]
8 | Oc1ccc2[nH]ccc2c1 | 10 µM [falling, partial curve]
9 | Fc1ccc2[nH]c3c(N4CCSCC4)ncnc3c2c1 | 25.1 µM [falling, single point]
10 | CCn1c(SCC(N)=O)nnc1-c1ccc(S(=O)(=O)N2CCN(C)CC2)cc1 | 3.98 µM [falling, single point]
11 | CC(C)COC(=O)n1c(SCC(=O)N(C)C)nc2ccccc21 | 10 µM [rising, partial curve]
12 | NC(=O)c1ccccc1NC(=O)CS(=O)(=O)Cc1ccccc1 | 10 µM [rising, partial curve]
13 | CC(C)Cn1c(N)c(C(=O)COC(=O)c2ccc3c(c2)OCCO3)c(=O)n(C)c1=O | 12.6 µM [rising, partial curve]
14 | CCOC(=O)c1sc(N2C(=O)C(O)=C(C(=O)c3ccco3)C2c2ccccc2)nc1C (stereo not drawn) | 15.8 µM [rising, single point]
15 | CCOC(=O)c1c(C)[nH]c(C(=O)COC(=O)C2CC2C)c1C (stereo not drawn) | 7.94 µM [rising, partial curve]
16 | O=C(CCn1nc(-c2ccccc2)c2ccccc2c1=O)N1CCN(c2ccccc2)CC1 | 5.01 µM [rising, partial curve]
17 | Cc1cc(C)c2cc(CN(CCO)C(=O)Nc3ccc(F)cc3)c(=O)[nH]c2c1 | 10 µM [rising, partial curve]
18 | COc1ccc2[nH]cc(CCNc3cc(-c4ccc(C(=O)N(C)C)cc4)ncn3)c2c1 | 25.1 µM [rising, single point]
19 | Cc1cc(NC(=O)CCCS(=O)(=O)c2nc(-c3cccs3)cc(C(F)(F)F)n2)no1 | 5.01 µM [falling, partial curve]
20 | O=C(O)c1cc(NCc2ccc3c(c2)OCO3)ccc1N1CCOCC1 | 3.16 µM [falling, full curve, poor fit]
21 | COc1ccc(C(=O)N2CCN(C(C)=O)CC2)cc1S(=O)(=O)NCc1ccc(Cl)cc1 | 5.01 µM [falling, partial curve]
22 | CCCCc1ccc2nc(NC(=O)OC)[nH]c2c1 | 0.316 µM [rising, full curve]
23 | CC(=O)Nc1ccc(NC(=O)CSc2nccn2Cc2ccccc2)cc1 | 1.26 µM [falling, full curve]

Row | SMILES | AC50
24 | COC(=O)c1ccc(COc2ccc3c(C)c(C)c(=O)oc3c2C)o1 | 0.00316 µM [falling, full curve]
25 | Cc1ccc2c(c1)c1nc3ccccc3nc1n2CCN1CCOCC1 | 1.58 µM [rising, full curve]
26 | Cc1cc(C(F)(F)F)nn1-c1nc(-c2ccco2)cc(C(F)(F)F)n1 | 0.01 µM [rising, full curve, poor fit]
27 | CCOC(=O)c1c(NC(=O)c2ccco2)sc2c1CCCCC2 | 12.6 µM [rising, partial curve]
28 | COc1cccc(CN2CCN(c3ncccn3)CC2)c1 | 0.00398 µM [falling, full curve]
29 | Cc1nc(NCc2ccco2)c2c3c(sc2n1)CCC3 | 10 µM [rising, partial curve]
30 | Cc1ccc(-c2nn(C)c(=O)c3ccccc23)cc1S(=O)(=O)N1CCCC1 | 2.51 µM [rising, full curve]
31 | CCC(C)NC(=O)C(NS(=O)(=O)c1cccc2nsnc12)c1ccccc1 (stereo not drawn) | 0.0251 µM [falling, full curve, poor fit]
32 | C/C=C/Cn1c(SCc2ccccc2)nc2c1c(=O)[nH]c(=O)n2C | 10 µM [rising, partial curve]
33 | O=C(C1CCC1)N1CCC(c2nc3c(nnn3Cc3c(F)cccc3Cl)c(=O)[nH]2)CC1 | 10 µM [rising, partial curve]
34 | COc1ccc(C2=NO[C@@H]3C(=O)N(c4cccc(C)c4C)C(=O)[C@H]23)cc1OC | 0.251 µM [falling, partial curve]
35 | CSc1nc2c(c(=O)[nH]c(=O)n2C)n1C/C=C(\C)Cl | 12.6 µM [rising, partial curve]
36 | CC1(C)Cc2c(sc3nc(NCCN4CCOCC4)n4ncnc4c23)CO1 | 2 µM [rising, full curve]
37 | C=CCc1c(C)[nH]c(=S)c(C#N)c1C | 12.6 µM [rising, single point]
38 | O=c1cc(CSc2nnc(-c3cccs3)n2Cc2ccccc2)nc2sc3ccccc3n12 | 12.6 µM [rising, partial curve]
39 | CCOc1cc(OCC)c(C(C)=O)cc1OCC | 10 µM [rising, partial curve]
40 | COc1ccc(-n2c(SCC(=O)Nc3nccs3)nc3c(c2=O)SCC3)cc1 | 12.6 µM [rising, single point]
41 | Cc1cc(N2CCN(C(=O)c3ccco3)CC2)n2ncnc2n1 | 3.16 µM [falling, single point]
42 | Cc1ccc(-c2nnc(N3CCOCC3)c3ccccc23)cc1S(=O)(=O)NCC1CCCO1 (stereo not drawn) | 3.16 µM [rising, full curve]
43 | Cc1cc(C)nc(NC(=O)Nc2ccccc2C(F)(F)F)n1 | 12.6 µM [rising, single point]
44 | CN(C)c1ccc(-c2nnn(CC(=O)Nc3ccccc3N3CCOCC3)n2)cc1 | 5.01 µM [rising, single point]
45 | CN(C)c1nc(N)nc(-c2ccco2)n1 | 12.6 µM [rising, single point]
46 | Cc1cnc(C(=O)Nc2cccc(-c3nnc4n3CCCCC4)c2)cn1 | 0.00316 µM [falling, full curve, poor fit]

Row | SMILES | AC50
47 | CCN(CC)CCN1C(=O)C(O)=C(C(C)=O)C1c1ccccc1 (stereo not drawn) | 31.6 µM [falling, partial curve, poor fit]
48 | N#CC1=C2SCN(Cc3ccccc3)CN2C(=O)CC1c1ccc2c(c1)OCO2 (stereo not drawn) | 25.1 µM [rising, single point]
49 | CC1(C)NC(=O)NC2(C)NC(=O)NC(C)(C)C12 (stereo not drawn) | 3.98 µM [rising, partial curve]
50 | O=c1c2[nH]c3ccccc3c2ncn1C1CCCCC1 | 15.8 µM [rising, partial curve, poor fit]
51 | Cc1cccn2c(=O)c3cc(C(=O)NCCN4CCOCC4)c(=N)n(CCc4ccccc4)c3nc12 | 12.6 µM [rising, partial curve]
52 | Cc1c(C(=O)N2CCN(S(C)(=O)=O)CC2)oc2ccccc12 | 3.98 µM [falling, single point]
53 | CCCCn1c(NC(=O)c2ccccc2)nc2ccccc21 | 12.6 µM [falling, single point]
54 | Clc1ccccc1N1CCN(c2ncnc3nc[nH]c23)CC1 | 12.6 µM [rising, single point]
55 | CCOC(=O)c1cnc2ccc(C(=O)OC)cc2c1NCCN1CCOCC1 | 15.8 µM [rising, partial curve]
56 | Cc1cc(=O)oc(C)c1C(=O)OCC(=O)c1ccccc1 | 1.26 µM [falling, partial curve, poor fit]
57 | O=c1c2ccccc2c(C=NCCO)c(O)n1-c1ccccc1 | 20 µM [rising, single point]
58 | CCC(Sc1nc(C)cc(=O)[nH]1)C(=O)Nc1nc2c(s1)CCCC2 (stereo not drawn) | 0.316 µM [falling, partial curve]
59 | Cn1cc(S(=O)(=O)N2CCN(Cc3ccccc3)CC2)c(=O)n(C)c1=O | 12.6 µM [rising, partial curve]
60 | COc1ccc(-n2c(=O)c(C)nc3cncnc32)cc1 | 12.6 µM [rising, partial curve, poor fit]
61 | COc1ccc(N2CCN(C(=O)CN(c3ccc(Br)cc3)S(C)(=O)=O)CC2)cc1 | 0.0126 µM [falling, partial curve, poor fit]
62 | CCOc1nc(Nc2ccc(-c3nc4ccccc4o3)cc2)nc(N2CCOCC2)n1 | 2.51 µM [rising, single point]
63 | Cn1c2ccc(F)cc2c2ncn(CCN3CCOCC3)c(=O)c21 | 25.1 µM [rising, single point]
64 | CC1(C)Oc2ccc3ccc(=O)oc3c2-c2cn[nH]c21 | 7.94 µM [rising, partial curve]
65 | Cc1nn(-c2ccc(F)cc2)c2nc(N)c(C#N)c(-c3cccs3)c12 | 12.6 µM [rising, partial curve]
66 | COc1ccc2ccccc2c1C1CC(=O)N2CN(Cc3ccco3)CSC2=C1C#N (stereo not drawn) | 12.6 µM [falling, single point]
67 | O=C(O)c1cc(=O)c2ccc(Cl)cc2[nH]1 | 31.6 µM [falling, single point]
68 | CCOC(=O)c1cnc(SCc2nc(N)nc(Nc3ccccc3)n2)nc1N | 7.94 µM [rising, partial curve]

In the list so far, 2 contain a COOH group.
Row | SMILES | AC50
20 | O=C(O)c1cc(NCc2ccc3c(c2)OCO3)ccc1N1CCOCC1 | 3.16 µM [falling, full curve, poor fit]
67 | O=C(O)c1cc(=O)c2ccc(Cl)cc2[nH]1 | 31.6 µM [falling, single point]
